# PubChem BioAssay AID493014 (National Center for Advancing Translational Sciences (NCATS), 2011)
# The other results are listed elsewhere or left out. Shown are side measurements of this screen, not its main read-out; they come without a call. The list favours compounds with an active or inconclusive main result. Potencies come from curve fits of mixed quality, noted in brackets.
# Test: qHTS Assay to Find Inhibitors of Chronic Active B-Cell Receptor Signaling
# Details: ABC-DLBCL IkBa-CBG/CBR reporter, luminescence ratio (green luciferase fused to IkBa over red control in TMD8 lymphoma cells), 4 h
# In short: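 Doxycycline induced both beetle luciferases in TMD8 lymphoma cells; IKK-driven degradation limits the IkappaBalpha-fused green signal, while red luminescence normalises for cell number and nonspecific effects. Compounds tested up to 46 uM, 4 hrs.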
# [1] = measured here: CBR red luminescence, cell number
# [2] = measured here: IkBa-CBG green luminescence
SMILES,AC50 [1],AC50 [2]
O=C(c1ccc(C#Cc2ccccc2)o1)N1CCN(c2ccccn2)CC1,"1.12 µM [rising, full curve, poor fit]",–
Cc1cc2ccccc2n1CCNC(=O)Cc1cccc2ccccc12,"14.6 µM [falling, partial curve]",–
COc1cc(C(=O)NCCN2CCN(C(=O)c3cc(OC)c(OC)c(OC)c3)CC2)cc(OC)c1OC,"2.82 µM [rising, partial curve]",–
O=C(Nc1cccnc1Cl)c1cc2ccccc2o1,"35.5 µM [falling, single point]",–
O=C(N/N=C/c1cccc2nccnc12)c1ccccc1O,"5.01 µM [falling, partial curve]",–
COc1ccccc1N1CCN(CC(=O)Nc2ccc(S(=O)(=O)N3CCCCCC3)cc2)CC1,"18.4 µM [rising, partial curve, poor fit]",–
CN1CCN(CC#CC2(O)CCCCC2)CC1,"35.5 µM [falling, single point]",–
O=C(CSc1cn[nH]n1)Nc1cccc(C(=O)O)c1,"8.91 µM [falling, partial curve, poor fit]",–
O=C(NNC(=S)NC1CC2CCC1C2)c1ccc(Cl)cc1 (configuration not stated),"10 µM [falling, partial curve]",–
Cc1ccc2c(c1)C(c1ccccc1)N(C(=O)c1ccc(Br)o1)CC(=O)N2 (configuration not stated),"23.1 µM [falling, single point]",–
Cc1c(C)c(C)c(/C=[N+](/C)[O-])c(C)c1C,"18.4 µM [falling, single point]",–
CN1CCCC1CCNc1ccc2c(=O)c3ccccc3oc2c1 (configuration not stated),"22.4 µM [falling, single point]","20 µM [rising, single point]"
CCOC(=O)C(CSCc1ccccc1)NC(=O)OC(C)(C)C (configuration not stated),"6.31 µM [falling, single point]",–
CC(C)c1nc2sc3c(=O)[nH]cnc3c2c2c1CCC2,"5.8 µM [rising, partial curve]",–
CCCCN1C(=O)N(C)C2NC(=O)NC21 (configuration not stated),"0.231 µM [falling, full curve, poor fit]",–
O=C(CN1C(=O)CCS(=O)(=O)c2ccccc21)Nc1ccc(F)cc1,"20 µM [falling, single point]",–
Cc1nc2sc(C(c3ccco3)N3CCN(C(c4ccccc4)c4ccccc4)CC3)c(O)n2n1 (configuration not stated),"29.1 µM [falling, single point]",–
COc1ccccc1OC(=O)Cc1cccc2ccccc12,"12.6 µM [rising, partial curve]",–
CCOC(=O)N1CCN(CC(=O)Nc2cc(OC)c(OC)cc2C#N)CC1,"31.6 µM [rising, single point]",–
ONC(=Nc1ccc(Cl)cc1)c1ccc(Cl)cc1,"7.31 µM [rising, partial curve, poor fit]",–
Cc1ccc(-c2nc(N)n(C(=O)c3ccco3)n2)cc1,"35.5 µM [falling, single point]",–

# Retrieved by compound from the list above:
SMILES,AC50 [1],AC50 [2]
Cc1ccc(-c2nc(N)n(C(=O)c3ccco3)n2)cc1,"35.5 µM [falling, single point]",–
O=C(c1ccc(C#Cc2ccccc2)o1)N1CCN(c2ccccn2)CC1,"1.12 µM [rising, full curve, poor fit]",–
O=C(CSc1cn[nH]n1)Nc1cccc(C(=O)O)c1,"8.91 µM [falling, partial curve, poor fit]",–

# Remaining list, next part.

SMILES,AC50 [1],AC50 [2]
COc1ccc(/C=C/C(=O)N(C)c2ccccc2C(=O)O)cc1,"22.4 µM [rising, partial curve, poor fit]",–
Cc1cccc(NC(c2ccc(C)s2)c2ccc3ccc(C)nc3c2O)n1 (configuration not stated),"14.6 µM [falling, single point]",–
Cc1cccc(N2CCN(C(=O)CNC(=O)Cc3ccccc3)CC2)c1C,"29.1 µM [falling, single point]",–
N#Cc1cc(-c2ccccc2)nc(Oc2ccc(Cl)cc2)n1,"10.3 µM [rising, partial curve, poor fit]",–
N#CCCN(C(=O)COC(=O)c1ccc2c(c1)OCO2)c1ccccc1,"3.66 µM [rising, single point]",–
CCN(CC)c1nc(Oc2ccc(C(=O)NN)cc2)nc(Oc2ccc(C(=O)NN)cc2)n1,"5.62 µM [falling, partial curve, poor fit]",–
O=C(N/N=C/c1ccc(Br)cc1)c1ccc(Br)o1,"13 µM [falling, partial curve, poor fit]",–
Cc1noc(C(=O)Nc2ccc(F)cc2F)c1Cl,"8.91 µM [falling, partial curve]",–
COC(=O)c1[nH]c2ccc(C)cc2c1NC(=O)CN1CCN(C(=O)c2ccccc2)CC1,"0.82 µM [rising, partial curve, poor fit]",–
COc1ccccc1CNC(=O)C(=O)c1cn(CC(=O)N2CCOCC2)c2ccccc12,"3.55 µM [falling, partial curve]",–
O=C(O)c1ccc(/C=N/NC(=O)c2ccc3c(c2)OCCO3)cc1,"8.91 µM [falling, partial curve, poor fit]",–
Cc1ccc(C)c(N2C(=O)CS/C2=N\NC(=O)c2ccccc2Cl)c1,"29.1 µM [falling, single point]",–
Clc1ccc2nc(N3CCN(c4ccccc4)CC3)sc2c1,"0.0291 µM [rising, full curve, poor fit]",–
CCC(C)NS(=O)(=O)c1ccc(OCC(=O)N2CCC(C)CC2)cc1 (configuration not stated),"9.2 µM [rising, partial curve, poor fit]",–
CCCCCCNC(=O)c1ccc(Br)o1,"7.31 µM [rising, partial curve, poor fit]",–
Cc1cc(=O)c2c(o1)CC(C)(C)CC2=O,"8.2 µM [rising, partial curve, poor fit]",–
CN(C)C(=O)C(CCN1CCC(O)(c2ccc(Cl)cc2)CC1)(c1ccccc1)c1ccccc1,"18.4 µM [falling, partial curve]","12.6 µM [rising, partial curve, poor fit]"
COc1ccccc1NC(=O)Cc1noc(CSc2cc(C)c3ccccc3n2)n1,"32.6 µM [falling, single point]",–
COc1ccccc1/C=C/C1(C(=O)NC2CCCC2)CC(=O)N1c1ccc(F)cc1 (configuration not stated),"1.3 µM [falling, partial curve, poor fit]","0.82 µM [rising, full curve, poor fit]"
O=C(Nc1ccc(Cl)cc1)Nc1nc(-c2ccccc2)cs1,"1.12 µM [rising, full curve, poor fit]",–
CN(c1ccccc1)S(=O)(=O)c1cccc(NC(=O)Cc2c(F)cccc2Cl)c1,"16.4 µM [falling, single point]",–

SMILES,AC50 [1],AC50 [2]
COc1ccc(N2CCN(CC(O)COc3ccc(F)cc3)CC2)cc1 (configuration not stated),"3.55 µM [rising, single point]",–
CCN(CC)C(=O)Cn1c(=O)oc2ccccc21,"2.82 µM [falling, single point]",–
COC(=O)c1ccc(COc2ccc(Cl)cc2)o1,"4.47 µM [rising, full curve, poor fit]",–
Cc1cccc(N2CC(C(=O)O)CC2=O)c1 (configuration not stated),"9.2 µM [falling, partial curve, poor fit]",–
CCOC(=O)N1CCN(C(=O)c2ccc(Cn3c(=S)[nH]c4cc(C(=O)OC)ccc4c3=O)cc2)CC1,"14.1 µM [falling, partial curve]",–
O=C1NN=C(c2ccc(Cl)cc2)CC1c1c[nH]c2ccccc12 (configuration not stated),"12.6 µM [falling, partial curve]",–
CCc1nc(Nc2ccccc2F)c2oc3ccccc3c2n1,"0.794 µM [falling, full curve]",–
O=C(N/N=C/c1cccs1)c1c[nH]c2ccccc12,"9.2 µM [falling, partial curve]",–
CCOC(=O)c1cc(-c2cccc(C(F)(F)F)c2)nc2nc(SC)[nH]c(=O)c12,"3.66 µM [rising, partial curve, poor fit]",–
Cc1nc2sc(C)c(C)c2c(=O)o1,"6.51 µM [falling, single point]",–
CCN(CC)S(=O)(=O)c1ccc2c(c1)N(CC(=O)NCCCN1CCN(c3cc(C)ccc3C)CC1)C(=O)CO2,"8.91 µM [falling, partial curve, poor fit]",–
CC(=O)Nc1ccc(S(=O)(=O)N2CCC(c3nc4c(nnn4Cc4ccccc4Cl)c(=O)[nH]3)CC2)cc1,"7.08 µM [falling, full curve, poor fit]",–
Cc1cc(C)c2c(N)c(C(=O)N/N=C/c3cccs3)sc2n1,"0.562 µM [falling, full curve, poor fit]",–
COc1cc([N+](=O)[O-])cc(/C=N/NC(=O)c2cc(-c3ccccc3)nc3ccccc23)c1O,"20 µM [rising, single point]","5.01 µM [falling, single point]"
COc1ccccc1OCc1ccc(C(=O)Nc2ccccc2F)cc1,"1.84 µM [falling, full curve, poor fit]",–
O=C1N(c2ccccc2)C2CS(=O)(=O)CC2N1c1ccc(Cl)c(Cl)c1 (configuration not stated),"17.8 µM [falling, partial curve, poor fit]",–
CC(C)CC1CC(=O)OC1(C)C(=O)CSc1nc2ccccc2s1 (configuration not stated),"17.8 µM [rising, single point]",–
CCCN1C(=O)C2(C(C(=O)c3ccc(C)o3)=C(O)C(=O)N2CCCOC)c2ccccc21 (configuration not stated),"10 µM [rising, partial curve, poor fit]",–
COc1cc(/C=C(\C#N)C(=O)NC2CCCCC2C)ccc1OS(=O)(=O)c1ccc(C)cc1 (configuration not stated),"14.6 µM [falling, single point]",–
COc1cc(/C=C/C(=O)Nc2ccc(OC)c(S(=O)(=O)N3CCOCC3)c2)ccc1OC(F)F,"4.61 µM [falling, single point]",–
CCOC(=O)c1csc(Nc2nc3ccc(F)cc3s2)n1,"0.398 µM [rising, full curve]",–
